These results are taken from PMC10531797.

Chains of the proteins cited; added tags and fusions are not shown. Residues count along the entry.
UniProt Q99523, residues 78-831: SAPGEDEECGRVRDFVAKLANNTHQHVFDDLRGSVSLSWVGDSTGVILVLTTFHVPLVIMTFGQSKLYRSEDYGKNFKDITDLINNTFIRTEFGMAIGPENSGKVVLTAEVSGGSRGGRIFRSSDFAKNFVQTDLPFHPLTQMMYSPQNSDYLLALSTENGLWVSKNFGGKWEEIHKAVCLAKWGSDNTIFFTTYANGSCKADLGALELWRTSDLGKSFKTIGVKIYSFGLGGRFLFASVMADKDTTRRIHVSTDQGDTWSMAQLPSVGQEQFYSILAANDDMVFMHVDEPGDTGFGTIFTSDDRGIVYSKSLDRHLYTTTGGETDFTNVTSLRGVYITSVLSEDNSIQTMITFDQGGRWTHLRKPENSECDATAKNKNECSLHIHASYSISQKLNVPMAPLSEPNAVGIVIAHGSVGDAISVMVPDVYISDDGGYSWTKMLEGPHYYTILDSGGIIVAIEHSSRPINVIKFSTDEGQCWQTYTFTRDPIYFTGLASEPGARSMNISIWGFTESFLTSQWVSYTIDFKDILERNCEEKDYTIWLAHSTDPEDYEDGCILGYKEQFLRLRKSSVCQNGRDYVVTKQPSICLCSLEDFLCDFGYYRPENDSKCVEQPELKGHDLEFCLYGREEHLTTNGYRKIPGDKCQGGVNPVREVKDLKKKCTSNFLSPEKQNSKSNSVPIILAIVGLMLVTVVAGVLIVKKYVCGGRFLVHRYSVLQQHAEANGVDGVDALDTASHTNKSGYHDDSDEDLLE

This assay deals with T1, glucose transporter-4 (Glut4) (human (endogenous in adipocytes differentiated from hASCs)) (UniProt P14672).
T1 sequence: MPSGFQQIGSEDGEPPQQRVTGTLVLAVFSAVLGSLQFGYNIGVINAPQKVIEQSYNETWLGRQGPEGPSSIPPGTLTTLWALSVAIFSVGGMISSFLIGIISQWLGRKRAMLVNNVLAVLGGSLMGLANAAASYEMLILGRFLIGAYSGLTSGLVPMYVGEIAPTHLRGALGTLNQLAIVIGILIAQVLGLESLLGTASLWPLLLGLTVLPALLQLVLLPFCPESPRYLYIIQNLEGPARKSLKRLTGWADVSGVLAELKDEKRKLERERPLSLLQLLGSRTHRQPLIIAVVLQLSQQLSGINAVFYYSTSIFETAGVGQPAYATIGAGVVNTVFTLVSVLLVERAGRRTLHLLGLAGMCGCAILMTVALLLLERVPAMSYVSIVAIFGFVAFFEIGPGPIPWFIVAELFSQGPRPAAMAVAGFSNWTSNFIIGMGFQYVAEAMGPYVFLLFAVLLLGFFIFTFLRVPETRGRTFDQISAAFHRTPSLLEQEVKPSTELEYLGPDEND
The assay is described as follows: co-IP; Glut4-agarose antibody (IgG as control) on 200 ug pre-cleared lysate of nondiabetic and type 2 diabetic human adipocytes (4 days of differentiation), overnight at 4 °C, PBS wash; blot with an antibody to the N-terminal domain of sortilin that detects both variants.

These are yes or no findings as the source states them, for the method shown. Binding seen in cells or lysates may run through a third protein. Some binding calls cover weakened binding; strength is not graded here. Where a sequence is shown, tags or fusion partners need not be part of it.

On to “full-length sortilin (Sort_FL) (from UniProt Q99523-1 78-831)”, for which the binding entry is on record as “binds”.
